Solubility and IC50 data for one compound are collected here from ChEMBL document CHEMBL4368923 (J Med Chem, 2019).

By UniProt entry, the sequences of proteins in these tests, tags left out.
UniProt P10635, whole entry: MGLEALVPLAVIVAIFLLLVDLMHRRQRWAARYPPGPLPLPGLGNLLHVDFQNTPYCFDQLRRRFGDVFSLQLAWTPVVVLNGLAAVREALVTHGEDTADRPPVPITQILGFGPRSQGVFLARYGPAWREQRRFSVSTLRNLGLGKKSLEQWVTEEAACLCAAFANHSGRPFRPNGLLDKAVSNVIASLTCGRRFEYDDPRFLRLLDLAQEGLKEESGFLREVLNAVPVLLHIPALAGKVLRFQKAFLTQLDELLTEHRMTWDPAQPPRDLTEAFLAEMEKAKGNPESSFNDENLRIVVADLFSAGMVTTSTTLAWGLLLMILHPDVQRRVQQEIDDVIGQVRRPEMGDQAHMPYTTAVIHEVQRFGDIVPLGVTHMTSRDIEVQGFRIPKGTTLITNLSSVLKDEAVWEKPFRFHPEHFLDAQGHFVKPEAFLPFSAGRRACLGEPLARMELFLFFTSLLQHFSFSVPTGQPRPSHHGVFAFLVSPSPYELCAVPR
UniProt P33261, whole entry: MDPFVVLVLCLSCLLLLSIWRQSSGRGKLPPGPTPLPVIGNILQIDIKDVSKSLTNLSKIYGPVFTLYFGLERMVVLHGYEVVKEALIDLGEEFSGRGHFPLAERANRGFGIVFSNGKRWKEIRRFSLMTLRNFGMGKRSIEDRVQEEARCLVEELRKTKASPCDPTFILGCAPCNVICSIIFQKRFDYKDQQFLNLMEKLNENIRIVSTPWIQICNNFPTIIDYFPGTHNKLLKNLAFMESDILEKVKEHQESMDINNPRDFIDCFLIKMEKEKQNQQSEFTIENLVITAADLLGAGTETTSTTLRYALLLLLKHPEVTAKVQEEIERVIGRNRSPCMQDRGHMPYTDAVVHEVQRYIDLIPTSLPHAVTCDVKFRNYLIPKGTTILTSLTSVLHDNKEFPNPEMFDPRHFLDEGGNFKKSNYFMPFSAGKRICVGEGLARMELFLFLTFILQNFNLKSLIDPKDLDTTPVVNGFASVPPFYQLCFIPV

The structures appear in SMILES notation. In brackets after ≈: the same amount, converted by molar mass.

By solubility is commonly meant the concentration that dissolves in the medium under given conditions. A lower solubility goes with a poorly soluble substance. As a reminder, the IC50 is the concentration needed to halve the response being measured. Low readings indicate higher potency, high ones lower potency.

A short description of series [1]: Solubility of the compound in deionized water at pH 7. To be noted: buffer.
Another series has as its target Cytochrome P450 2D6 (Homo sapiens, UniProt P10635).
For another series, the target named is Cytochrome P450 2C19 (Homo sapiens, UniProt P33261).

Regarding `Cc1cc(/C=C/C#N)cc(C)c1Oc1ccnc(Nc2ccc(CN3CCN(S(C)(=O)=O)CC3)cc2)n1`, the solubility in series [1] came to 0.0309 mg/mL (≈ 59.6 µM). Besides, the IC50 at Cytochrome P450 2D6 was above 50 µM; on Cytochrome P450 2C19 it was 27 µM.
